Assay results from patent US5496947A, “Quinolone carboxylic acid derivatives” (Dong Wha Pharmaceutical Industrial Co., Ltd., priority 1994, dated 1996).

Assay: Pharmacokinetic properties in ICR mouse, oral and subcutaneous, Bio-Assay (Agar well method)
Details: in vivo, 40 mg/kg
Method: The pharmacokinetic properties are tested by orally administrating and subcutaneously injecting a test compound and a substance for control to a ICR Mouse with 22 g±10% weight, drawing blood after 10, 20, 30, 45, 60, 90, 120, 150, 180 and […] and analyzed by Bio-Assay (Agar well method).

In the case of `O=C(O)c1cn(C2CC2)c2cc(N3CCNCC3)c(F)cc2c1=O` [Ciprofloxacin, reference compound], the AUC (po) is reported as 2270 ng·h/mL, the Cmax (po) is reported as 1710 ng/mL and the Tmax (po) is reported as 1.47 h. It also gave an AUC (sc) of 15600 ng·h/mL, a Cmax (sc) of 7770 ng/mL and a Tmax (sc) of 1.56 h.
